The values below come from PubChem BioAssay AID2685 (National Center for Advancing Translational Sciences (NCATS), 2010).

The test is described as follows: qHTS Assay for Lipid Storage Modulators in Drosophila S3 Cells.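 On cell number change: cells counted by Cell Tracker Red CMTPX staining in the red channel.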 The conditions noted are these: BODIPY lipid droplet fluorescence, 18-24 h; for cell number change: measured here: cell count max response, cells fed with added oleic acid. A digest of the protocol:
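Drosophila S3 cells got compounds at several concentrations plus oleic acid (400 uM solution). Laser-scanning cytometry with 488 nm excitation read lipid droplets at 500-530 nm and cells at 575-640 nm. Percent activity was relative to 20 uM Triacsin C.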
Background: Quantitative high-throughput screening tests each substance at several concentrations.

[1] abbreviates: measured here: lipid fluorescence (Fed channel) AC50, cells fed with added oleic acid.
The mark [2] stands for this setting: measured here: cell number channel AC50, cells fed with added oleic acid.

Some of the results follow. These are further read-outs of the screen, such as a control signal, another cell line or another target. No call is given for them. Most of these compounds were active or inconclusive in the main read-out, so they are no random draw. The note in brackets gives the kind of curve behind each potency; many fits are weak.

Turning to `O=C(CN1C(=O)NC2(CCc3ccccc32)C1=O)NCc1ccc(F)cc1` (stereo unspecified), the concentration at half-maximal activity (AC50) under setting [1] is 32.6 µM [falling, single point].

As to `Cc1nn(-c2ccccc2)c2c1/C(=N/O)CC(C)(C)C2`, the cell number change is -6.32%. For the same compound, the AC50 under setting [1] was 0.651 µM [falling, full curve, poor fit].

In the case of `CC(C)(C)C(=O)Nc1cc2c3c(c1)CCN3C(=O)CC2`, the cell number change was -20.9%. In addition, under setting [1], the AC50 was 0.651 µM [falling, partial curve, poor fit].

Turning to `Cc1[nH]c(=O)c(C#N)cc1-c1ccccc1`, the cell number change is -24.8%. Under setting [1], the half-maximal activity concentration (AC50) is 14.6 µM [falling, partial curve].

`Cc1ccc(N2C(=O)CCC2(C(N)=O)c2ccccc2)cc1` (stereo unspecified): the cell number change was -20.8%. Moreover, under setting [1], the AC50 was 3.66 µM [falling, full curve].

Turning to `Cn1cnnc1SCC(=O)Nc1ccccc1Sc1ccccc1`, the cell number change is 7.06%. In addition, the AC50 under setting [2] is 0.146 µM [rising, full curve, poor fit].

Turning to `COCCNC(=S)N/N=C(\C)c1ccccc1OC`, the cell number change stood at 40.6%. The half-maximal activity concentration (AC50) under setting [2] is 8.2 µM [rising, partial curve]. In addition, the AC50 under setting [1] is 7.31 µM [rising, partial curve].

In the case of `CCSc1nnc(NC(=O)Cc2cccc(OC)c2)s1`, the cell number change amounted to 17.1%. Also, the concentration at half-maximal activity (AC50) under setting [1] is 6.51 µM [falling, single point].

`CS(=O)(=O)c1cccc(S(=O)(=O)N2CCN(c3ccccn3)CC2)c1`: the cell number change is -8.52%. Moreover, under setting [1], the AC50 was 4.11 µM [falling, single point].

Turning to `Cc1ccc(/C=N/N2CCOCC2)s1`, the half-maximal activity concentration (AC50) under setting [2] was 0.116 µM [falling, single point].

`CS(=O)Cc1cc(Sc2ccccc2)nc(-c2cccnc2)n1` (stereo unspecified): the cell number change stood at 80.6%. The half-maximal activity concentration (AC50) under setting [2] is 3.66 µM [rising, full curve]. Also, the concentration at half-maximal activity (AC50) under setting [1] was 4.11 µM [rising, full curve, poor fit].

For the compound `CCn1c(C)c(Br)c(=O)c(C(=O)OC)c1-c1ccc(Cl)cc1`, the cell number change was -6.03%. In addition, under setting [1], the AC50 was 3.26 µM [falling, single point].

With `Nn1c(SCC(=O)Nc2ccc(F)cc2F)nnc1-c1cccnc1`, the cell number change is -15.7%. Further, the AC50 under setting [1] was 4.61 µM [falling, full curve, poor fit].

For `FC(F)C(F)(F)c1cc(-c2ccc(Cl)cc2)n[nH]1`, the cell number change was -42.4%. Also, under setting [2], the AC50 was 18.4 µM [falling, single point]. Under setting [1], the AC50 is 23.1 µM [falling, single point].

As for `CC(C)N(C(=O)CSc1nc(COc2ccccc2)nc2ccccc12)C(C)C`, the cell number change was -2.57%.

In the case of `Cc1ccc(Cn2nc(C)c3cc(C(=O)OCC(N)=O)sc32)cc1`, the cell number change was 36%. Moreover, under setting [2], the concentration at half-maximal activity (AC50) was 25.9 µM [rising, single point].

`O=C1NCCN1Cc1ccccc1`: the cell number change was -33.6%. Under setting [2], the half-maximal activity concentration (AC50) was 2.59 µM [falling, full curve].

With `Cn1c(=O)c2sccc2n2c(CCCC(=O)NCCc3ccc(S(N)(=O)=O)cc3)nnc12`, the cell number change was -3.42%.

For `Cc1ccc(S(=O)(=O)N(Cc2ccccc2)c2ccccc2C(=O)Nc2ccccc2C(=O)NCc2ccco2)cc1`, the cell number change is 33.5%. Further, the AC50 under setting [2] was 20.6 µM [rising, single point]. Besides, the half-maximal activity concentration (AC50) under setting [1] is 0.231 µM [rising, full curve].

Take `CC(C)N(Cc1nc(-c2ccccc2)no1)C(=O)c1ccc2c(c1)OCO2`: the cell number change worked out at 159%. For the same compound, the AC50 under setting [2] was 29.1 µM [rising, single point]. The AC50 under setting [1] was 29.1 µM [rising, single point].

As for `CN(CC(=O)Nc1ccc(Cl)c(C(F)(F)F)c1)CC(=O)NC1CCCCC1`, the cell number change was -10.6%. For the same compound, under setting [1], the AC50 was 6.51 µM [rising, single point].

As to `COc1ccc(C(c2c(C)[nH]n(C(N)=S)c2=O)C(C#N)C#N)cc1` (stereo unspecified), the cell number change is -42.5%. For the same compound, under setting [2], the half-maximal activity concentration (AC50) is 29.1 µM [falling, single point]. Under setting [1], the AC50 is 23.1 µM [falling, single point].

`CC(C)C(NC(=O)CCNC(=O)c1ccc([N+](=O)[O-])cc1)c1nc2ccccc2[nH]1` (stereo unspecified): the cell number change was determined as 8.33%. Moreover, the AC50 under setting [1] is 3.26 µM [rising, single point].

For `COc1ccc(OC(C)C(=O)N2CCCc3ccccc32)cc1` (stereo unspecified), the cell number change was -29.9%. Also, the concentration at half-maximal activity (AC50) under setting [2] is 0.82 µM [rising, single point].

As for `CNc1nc(-c2c[nH]c3ccccc23)cs1`, the cell number change was -43.1%. Besides, the half-maximal activity concentration (AC50) under setting [2] was 29.1 µM [falling, single point]. In addition, under setting [1], the AC50 is 20.6 µM [falling, single point].

Consider `CONc1nc2nonc2nc1NOC`, for which the cell number change was 6.41%. In addition, the half-maximal activity concentration (AC50) under setting [1] was 29.1 µM [falling, single point].

Regarding `O=C(c1cc(S(=O)(=O)N2CCCCC2)ccc1Cl)N1CCOCC1`, the cell number change was -11.3%. In addition, the AC50 under setting [1] is 2.31 µM [rising, partial curve].

On to `CSC(C(=O)c1cc2ccccc2o1)c1ccccc1` (stereo unspecified), for which the cell number change was -21.1%. The AC50 under setting [1] was 0.651 µM [falling, single point].

With `CCOC(=O)c1cnc2nc(Cc3ccccc3)[nH]n2c1=O`, the cell number change was found to be 6.64%.

For `COc1ccc(/C=C/C(=O)OCCNC(=O)c2ccncc2)cc1OC`, the half-maximal activity concentration (AC50) under setting [1] is 4.11 µM [rising, single point].

As to `CS(=O)(=O)N(CC(=O)NCc1ccc2c(c1)OCO2)C1CCCCC1`, the cell number change is -10.2%. Also, the AC50 under setting [1] is 16.4 µM [falling, single point].

For the compound `CNc1nnc(SCC(=O)c2c(N)n(C3CC3)c(=O)[nH]c2=O)s1`, the cell number change worked out at 18%.

As to `COCCn1ccc(O)c(Cc2ccccc2)c1=O`, the cell number change was -91.4%. In addition, the concentration at half-maximal activity (AC50) under setting [2] was 32.6 µM [falling, single point]. Also, the AC50 under setting [1] is 29.1 µM [falling, single point].

For the compound `Cc1c(CCC(=O)O)c(=O)oc2c(C)c(OCc3cc4c(cc3Cl)OCO4)ccc12`, the cell number change was found to be 12.5%.

Regarding `Cc1cccc(NC(=S)Nc2c(C)n(C)n(-c3ccccc3)c2=O)c1C`, the cell number change is -9.89%. Further, the half-maximal activity concentration (AC50) under setting [1] was 5.8 µM [falling, partial curve, poor fit].

As for `COc1cccc(NC(=O)c2ccccc2F)c1`, the cell number change was found to be 30%. In addition, the AC50 under setting [2] is 14.6 µM [rising, single point]. The AC50 under setting [1] is 11.6 µM [rising, partial curve].

With `CSCc1ccc(C(=O)Nc2ccc(C(N)=O)cc2)cc1`, the cell number change stood at 100%. For the same compound, the half-maximal activity concentration (AC50) under setting [2] is 29.1 µM [rising, single point].

As to `Cc1c(O)nc(SC2CC(=O)N(c3ccccc3)C2=O)[nH]c1=O` (stereo unspecified), the cell number change was 3.25%. Moreover, the AC50 under setting [1] is 29.1 µM [rising, single point].

`O=C(O)[C@@H]1[C@@H]2C[C@@H]2CN1c1ncccc1[N+](=O)[O-]`: the cell number change was 100%. In addition, the AC50 under setting [2] was 18.4 µM [rising, single point].

On to `O=C1CCCN2N=C(SCC(=O)Nc3nc4ccccc4s3)SC2=N1`, for which the cell number change was 6.35%. Also, the AC50 under setting [1] was 0.0058 µM [falling, full curve, poor fit].

As for `O=C(NC(=O)c1ccccc1)OCC1CCCN2CCCCC12` (stereo unspecified), the cell number change was -12.4%.

On to `CCCN(CC(=O)Nc1ccccc1C)C(=O)c1sc2ccccc2c1Cl`, for which the cell number change was found to be 4.35%. Moreover, the concentration at half-maximal activity (AC50) under setting [1] was 2.91 µM [falling, partial curve, poor fit].

Take `COC(=O)c1cn(C(=O)c2ccc(OC)cc2)c2ccccc12`: the cell number change was -4.69%. Moreover, under setting [1], the AC50 was 1.64 µM [rising, partial curve, poor fit].

For the compound `COc1cccc(CN(CC(=O)NCc2ccccc2)S(=O)(=O)CCl)c1`, the cell number change worked out at 7.86%.

In the case of `O=C(N/N=C1\CC2CC=CC12)c1ccc(Br)cc1` (stereo unspecified), the cell number change stood at 7.09%.

In the case of `O=C(/C=C/c1ccc2c(c1)OCO2)NCCS(=O)(=O)N1CCN(c2ccc(F)cc2)CC1`, the AC50 under setting [1] is 0.164 µM [rising, full curve, poor fit].

Take `COc1cccc2cc(S(=O)(=O)c3ccccc3)c(=Nc3ccc4c(c3)OCCO4)oc12`: the cell number change is -21.2%. Besides, the AC50 under setting [2] is 0.00411 µM [rising, full curve, poor fit]. Besides, the AC50 under setting [1] is 0.411 µM [rising, full curve, poor fit].

In the case of `CCc1ccccc1NC(=O)CSc1ccsc1[N+](=O)[O-]`, the cell number change was determined as 13.2%. Moreover, under setting [1], the AC50 is 6.51 µM [rising, single point].

As for `COc1ccc(C2c3c(ccc4ccccc34)Oc3ncn4nc(Cc5ccccc5)nc4c32)cc1OC` (stereo unspecified), the AC50 under setting [2] is 1.3 µM [rising, full curve, poor fit].

In the case of `CCCOC(=O)c1ccc(NC(=O)CCC(=O)OCC)cc1`, the cell number change was -1.49%. In addition, the AC50 under setting [1] was 0.13 µM [falling, full curve, poor fit].

Consider `COc1cccc(C=Nc2cc(C)on2)c1O`, for which the cell number change was determined as 0.947%. Moreover, the half-maximal activity concentration (AC50) under setting [1] was 25.9 µM [falling, single point].

Turning to `Cc1ccc(CCNS(=O)(=O)c2ccc3c(c2)NC(=O)C(C)C(=O)N3)cc1` (stereo unspecified), the cell number change turned out to be 21.3%. The AC50 under setting [1] is 18.4 µM [rising, single point].

Take `COc1ccc(/C=N/N(C)C2=NCCN2)c(OC)c1OC`: the cell number change was 7.09%. Under setting [2], the AC50 is 0.731 µM [falling, single point]. Besides, the AC50 under setting [1] was 0.58 µM [falling, single point].

Turning to `Cc1onc(-c2ccccc2)c1CNC(=O)CN1C(=O)c2ccccc2C1=O`, the cell number change was -24.2%. Besides, the concentration at half-maximal activity (AC50) under setting [1] is 16.4 µM [falling, partial curve].

In the case of `Cc1noc(C)c1COC(=O)[C@@H](NC(=O)c1ccccc1Cl)C(C)C`, the cell number change turned out to be 23.1%. Moreover, the half-maximal activity concentration (AC50) under setting [2] is 0.092 µM [rising, full curve, poor fit].

Consider `CCN(CC)S(=O)(=O)c1ccc(N)cc1`, for which the cell number change is 16.3%. The concentration at half-maximal activity (AC50) under setting [1] was 29.1 µM [rising, single point].

As to `O=c1cc(-c2ccccc2)nc(SCc2ccccc2)[nH]1`, the cell number change was -84%. Besides, the half-maximal activity concentration (AC50) under setting [2] is 29.1 µM [falling, partial curve, poor fit]. Besides, under setting [1], the AC50 is 29.1 µM [falling, partial curve, poor fit].

For the compound `CCN(CC)c1ccc(/C=C/c2cccc[n+]2C)c(OC)c1`, the cell number change was -94.6%. Moreover, the AC50 under setting [2] is 14.6 µM [falling, partial curve]. Moreover, under setting [1], the half-maximal activity concentration (AC50) is 1.64 µM [falling, full curve].

Regarding `CC(=O)Nc1ccc(S(=O)(=O)N2CCC(C(=O)c3ccc(Cl)cc3)CC2)cc1`, the cell number change is 10.4%.

With `O=C1CC(c2ccco2)c2ccc3ccccc3c2N1` (stereo unspecified), the cell number change is -11.1%. Further, the AC50 under setting [1] is 6.51 µM [rising, single point].

For the compound `Cc1nc2ccccc2c(=O)n1NC(=O)/C=C/c1ccccc1Cl`, the cell number change amounted to 8.63%. Also, the half-maximal activity concentration (AC50) under setting [1] was 14.6 µM [rising, partial curve, poor fit].

Broadly, the AC50 is the midpoint of the concentration-response curve, whichever way the signal moves.
